Results on two compounds are retold here after PubChem BioAssay (EPA / NIEHS).

Protein sequences, listed by entry. Tags and fused reporters are not part of them. Lines headed by an entry give the natural chain unless they say otherwise; changes in a name come on top.
UniProt P21709: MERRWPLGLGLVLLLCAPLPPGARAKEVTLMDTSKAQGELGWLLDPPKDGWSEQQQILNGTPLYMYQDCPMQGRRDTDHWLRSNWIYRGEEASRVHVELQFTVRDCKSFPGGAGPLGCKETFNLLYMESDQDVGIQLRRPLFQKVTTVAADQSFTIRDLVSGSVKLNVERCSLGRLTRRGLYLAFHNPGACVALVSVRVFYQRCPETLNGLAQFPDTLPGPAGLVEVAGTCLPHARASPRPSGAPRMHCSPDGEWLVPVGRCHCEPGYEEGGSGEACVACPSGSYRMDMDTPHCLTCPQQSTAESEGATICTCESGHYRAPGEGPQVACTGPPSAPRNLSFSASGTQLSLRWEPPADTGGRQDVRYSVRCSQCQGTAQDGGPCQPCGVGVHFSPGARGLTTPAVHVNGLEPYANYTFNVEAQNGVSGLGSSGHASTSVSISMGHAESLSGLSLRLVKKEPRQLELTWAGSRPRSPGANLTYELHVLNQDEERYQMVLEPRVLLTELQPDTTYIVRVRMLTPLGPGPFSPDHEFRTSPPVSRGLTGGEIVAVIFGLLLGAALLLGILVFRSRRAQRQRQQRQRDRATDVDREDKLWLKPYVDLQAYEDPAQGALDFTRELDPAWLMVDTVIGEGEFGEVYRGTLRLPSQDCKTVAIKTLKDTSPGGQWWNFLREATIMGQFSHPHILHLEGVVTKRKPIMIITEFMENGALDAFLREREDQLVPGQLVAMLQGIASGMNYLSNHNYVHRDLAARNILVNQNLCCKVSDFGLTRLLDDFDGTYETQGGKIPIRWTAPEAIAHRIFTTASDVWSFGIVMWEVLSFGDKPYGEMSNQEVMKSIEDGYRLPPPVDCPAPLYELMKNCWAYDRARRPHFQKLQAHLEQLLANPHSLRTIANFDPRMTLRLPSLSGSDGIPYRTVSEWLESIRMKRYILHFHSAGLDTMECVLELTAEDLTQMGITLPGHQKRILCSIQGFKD
UniProt Q12923: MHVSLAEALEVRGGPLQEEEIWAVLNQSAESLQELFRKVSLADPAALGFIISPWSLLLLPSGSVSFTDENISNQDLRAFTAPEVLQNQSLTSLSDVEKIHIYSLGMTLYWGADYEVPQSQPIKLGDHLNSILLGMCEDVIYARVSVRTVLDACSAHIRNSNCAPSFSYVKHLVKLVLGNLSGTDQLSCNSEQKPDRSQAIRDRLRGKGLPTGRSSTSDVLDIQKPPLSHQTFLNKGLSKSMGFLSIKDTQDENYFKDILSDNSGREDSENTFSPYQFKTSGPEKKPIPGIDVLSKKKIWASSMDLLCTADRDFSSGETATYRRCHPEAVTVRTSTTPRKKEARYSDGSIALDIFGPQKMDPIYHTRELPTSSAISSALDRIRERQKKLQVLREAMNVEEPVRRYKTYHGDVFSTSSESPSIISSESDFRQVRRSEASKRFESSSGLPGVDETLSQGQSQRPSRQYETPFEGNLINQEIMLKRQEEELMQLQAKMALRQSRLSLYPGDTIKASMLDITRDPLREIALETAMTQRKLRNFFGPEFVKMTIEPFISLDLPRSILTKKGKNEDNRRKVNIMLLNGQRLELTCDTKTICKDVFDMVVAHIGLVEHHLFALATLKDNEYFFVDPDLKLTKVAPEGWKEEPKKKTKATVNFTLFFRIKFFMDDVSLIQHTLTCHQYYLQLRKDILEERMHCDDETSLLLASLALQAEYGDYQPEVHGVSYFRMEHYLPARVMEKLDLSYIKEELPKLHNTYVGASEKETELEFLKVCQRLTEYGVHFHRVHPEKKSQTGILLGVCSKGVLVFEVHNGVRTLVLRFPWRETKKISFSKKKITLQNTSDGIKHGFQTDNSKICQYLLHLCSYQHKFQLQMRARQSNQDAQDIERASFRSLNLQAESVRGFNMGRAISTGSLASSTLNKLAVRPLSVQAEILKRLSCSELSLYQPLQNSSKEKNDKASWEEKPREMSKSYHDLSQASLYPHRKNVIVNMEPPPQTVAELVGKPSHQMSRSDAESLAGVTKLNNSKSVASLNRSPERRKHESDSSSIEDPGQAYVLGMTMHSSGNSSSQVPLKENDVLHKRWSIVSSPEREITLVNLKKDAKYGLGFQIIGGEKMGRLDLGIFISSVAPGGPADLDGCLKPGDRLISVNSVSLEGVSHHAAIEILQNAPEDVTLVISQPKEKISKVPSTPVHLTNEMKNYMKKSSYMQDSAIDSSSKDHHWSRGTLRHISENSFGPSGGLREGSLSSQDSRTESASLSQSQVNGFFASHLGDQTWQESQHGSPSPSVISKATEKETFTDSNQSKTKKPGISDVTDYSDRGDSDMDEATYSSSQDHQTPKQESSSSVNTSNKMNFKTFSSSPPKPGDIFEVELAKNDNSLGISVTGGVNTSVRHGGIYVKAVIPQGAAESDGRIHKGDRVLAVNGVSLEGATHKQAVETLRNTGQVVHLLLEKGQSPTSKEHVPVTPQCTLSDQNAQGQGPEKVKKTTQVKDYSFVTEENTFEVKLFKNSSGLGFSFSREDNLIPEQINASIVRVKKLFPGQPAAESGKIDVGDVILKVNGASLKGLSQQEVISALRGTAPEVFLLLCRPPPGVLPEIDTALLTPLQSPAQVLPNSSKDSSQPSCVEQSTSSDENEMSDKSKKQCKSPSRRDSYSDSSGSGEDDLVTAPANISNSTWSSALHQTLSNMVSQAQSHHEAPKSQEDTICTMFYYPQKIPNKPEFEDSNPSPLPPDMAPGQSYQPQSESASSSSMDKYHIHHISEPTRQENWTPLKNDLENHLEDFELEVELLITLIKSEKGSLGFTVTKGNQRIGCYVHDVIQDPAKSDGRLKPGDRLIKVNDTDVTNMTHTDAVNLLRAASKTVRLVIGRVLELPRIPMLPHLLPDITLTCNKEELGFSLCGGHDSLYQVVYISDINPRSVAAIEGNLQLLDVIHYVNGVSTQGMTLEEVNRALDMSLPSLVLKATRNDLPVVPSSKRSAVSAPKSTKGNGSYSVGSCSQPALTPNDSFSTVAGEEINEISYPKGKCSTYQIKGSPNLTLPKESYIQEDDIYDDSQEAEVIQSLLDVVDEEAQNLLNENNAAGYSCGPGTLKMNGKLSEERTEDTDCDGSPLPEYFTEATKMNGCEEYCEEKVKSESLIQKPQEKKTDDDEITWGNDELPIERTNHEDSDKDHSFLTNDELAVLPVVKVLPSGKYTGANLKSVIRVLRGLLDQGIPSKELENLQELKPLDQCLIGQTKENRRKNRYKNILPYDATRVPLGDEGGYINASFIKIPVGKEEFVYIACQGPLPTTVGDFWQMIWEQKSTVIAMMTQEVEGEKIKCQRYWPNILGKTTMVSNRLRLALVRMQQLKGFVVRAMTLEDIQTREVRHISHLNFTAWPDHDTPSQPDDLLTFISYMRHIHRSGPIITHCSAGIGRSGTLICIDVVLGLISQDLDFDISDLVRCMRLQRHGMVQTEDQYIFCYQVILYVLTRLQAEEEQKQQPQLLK
UniProt Q5TCH4: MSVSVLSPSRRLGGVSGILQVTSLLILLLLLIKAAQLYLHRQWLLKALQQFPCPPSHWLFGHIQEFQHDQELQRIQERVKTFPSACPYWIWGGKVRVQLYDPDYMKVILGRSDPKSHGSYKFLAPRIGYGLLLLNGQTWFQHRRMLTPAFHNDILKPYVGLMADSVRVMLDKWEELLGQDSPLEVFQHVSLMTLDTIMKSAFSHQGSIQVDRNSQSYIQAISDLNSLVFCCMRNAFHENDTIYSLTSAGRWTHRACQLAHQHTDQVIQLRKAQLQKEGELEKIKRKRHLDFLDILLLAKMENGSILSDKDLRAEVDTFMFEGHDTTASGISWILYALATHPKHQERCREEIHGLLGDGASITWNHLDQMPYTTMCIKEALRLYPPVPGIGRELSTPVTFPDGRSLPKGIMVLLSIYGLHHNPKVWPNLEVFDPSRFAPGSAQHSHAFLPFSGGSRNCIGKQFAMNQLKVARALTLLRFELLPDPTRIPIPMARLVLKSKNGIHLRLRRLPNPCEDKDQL
UniProt P19838: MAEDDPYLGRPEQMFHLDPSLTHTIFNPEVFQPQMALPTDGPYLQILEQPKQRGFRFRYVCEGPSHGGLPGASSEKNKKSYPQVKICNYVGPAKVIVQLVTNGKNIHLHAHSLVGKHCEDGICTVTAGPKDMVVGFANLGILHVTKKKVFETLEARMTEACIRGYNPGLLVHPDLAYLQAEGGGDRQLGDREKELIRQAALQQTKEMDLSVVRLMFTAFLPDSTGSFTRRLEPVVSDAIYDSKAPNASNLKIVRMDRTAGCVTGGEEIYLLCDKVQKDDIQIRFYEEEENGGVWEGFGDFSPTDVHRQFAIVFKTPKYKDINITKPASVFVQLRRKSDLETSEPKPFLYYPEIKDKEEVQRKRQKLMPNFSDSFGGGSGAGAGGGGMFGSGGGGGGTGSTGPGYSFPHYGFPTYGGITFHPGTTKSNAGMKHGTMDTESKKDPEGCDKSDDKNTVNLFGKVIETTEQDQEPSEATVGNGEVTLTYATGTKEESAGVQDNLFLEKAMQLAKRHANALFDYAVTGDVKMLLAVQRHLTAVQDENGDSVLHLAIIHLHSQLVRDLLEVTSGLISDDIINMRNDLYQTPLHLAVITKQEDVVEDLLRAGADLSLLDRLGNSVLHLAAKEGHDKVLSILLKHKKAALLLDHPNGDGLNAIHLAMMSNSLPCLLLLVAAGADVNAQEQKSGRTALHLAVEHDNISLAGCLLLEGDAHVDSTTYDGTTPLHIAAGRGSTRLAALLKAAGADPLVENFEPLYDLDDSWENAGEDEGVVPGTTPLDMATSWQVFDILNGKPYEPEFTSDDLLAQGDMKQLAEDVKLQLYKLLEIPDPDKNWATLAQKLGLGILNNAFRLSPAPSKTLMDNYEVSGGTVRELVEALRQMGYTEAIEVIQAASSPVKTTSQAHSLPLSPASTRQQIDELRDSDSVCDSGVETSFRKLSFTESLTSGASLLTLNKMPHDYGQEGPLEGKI
UniProt P03372, whole entry, looked up: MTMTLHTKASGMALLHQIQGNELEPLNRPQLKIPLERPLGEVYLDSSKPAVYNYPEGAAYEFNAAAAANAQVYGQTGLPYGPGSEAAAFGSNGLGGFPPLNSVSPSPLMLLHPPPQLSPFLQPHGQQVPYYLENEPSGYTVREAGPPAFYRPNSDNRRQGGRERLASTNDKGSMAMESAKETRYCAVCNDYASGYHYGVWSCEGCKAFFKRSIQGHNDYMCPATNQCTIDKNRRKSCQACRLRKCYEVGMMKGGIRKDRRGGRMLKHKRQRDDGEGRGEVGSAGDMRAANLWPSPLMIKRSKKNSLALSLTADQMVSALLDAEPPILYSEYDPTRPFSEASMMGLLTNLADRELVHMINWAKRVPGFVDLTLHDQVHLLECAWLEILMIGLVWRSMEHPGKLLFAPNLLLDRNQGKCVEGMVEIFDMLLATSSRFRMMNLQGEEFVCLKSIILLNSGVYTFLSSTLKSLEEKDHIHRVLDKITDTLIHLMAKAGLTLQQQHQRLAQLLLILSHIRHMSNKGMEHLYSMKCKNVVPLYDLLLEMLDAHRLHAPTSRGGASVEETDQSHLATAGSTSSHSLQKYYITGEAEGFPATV
UniProt P04637, whole entry, looked up: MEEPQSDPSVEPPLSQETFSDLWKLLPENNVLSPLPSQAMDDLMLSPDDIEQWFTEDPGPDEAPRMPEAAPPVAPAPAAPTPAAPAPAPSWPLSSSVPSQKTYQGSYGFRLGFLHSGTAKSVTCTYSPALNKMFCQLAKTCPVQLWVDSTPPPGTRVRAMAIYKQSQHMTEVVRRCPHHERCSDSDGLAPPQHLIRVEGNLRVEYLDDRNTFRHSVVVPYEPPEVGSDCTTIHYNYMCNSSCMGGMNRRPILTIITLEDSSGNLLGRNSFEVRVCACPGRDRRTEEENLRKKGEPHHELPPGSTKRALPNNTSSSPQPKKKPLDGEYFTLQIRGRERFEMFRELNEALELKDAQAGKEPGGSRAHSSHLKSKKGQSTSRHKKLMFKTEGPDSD

Read-out in assay [1]: Tissue Factor, F3 (gene 2152)
Description: BSK_CASM3C_TissueFactor: BioMAP Diversity Plus: CASM3C Assay for Tissue Factor Biomarker Activity (AID 2283052).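 Note: cell surface tissue factor protein level read by ELISA.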 Conditions: actives raise or lower the signal; primary human coronary artery smooth muscle cells.

Assay [2] deals with human Ephrin type-A Receptor 1 (EphA1), EPHA1 (gene 2041) (UniProt P21709). Description: NVS_ENZ_hEphA1: NovaScreen (NVS) Enzymatic Assay for human Ephrin type-A Receptor 1 (EphA1) (AID 2283158; active = hit-call score of the fitted dose curve at least 0.9, where 1 is the maximum;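 note: activity is signal loss versus DMSO meaning EphA1 kinase inhibition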). In outline:
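Cell-free enzymatic assay with recombinant EphA1 and fluorescent substrate; product separated by electrophoretic mobility shift, fluorescence intensity read 1 hour after dosing. Loss of signal versus DMSO baseline; primary duplicate screen at 25 uM, actives followed to 50 uM top concentration.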

The target of assay [3] is Tyrosine-protein phosphatase non-receptor type 13 (Homo sapiens) (UniProt Q12923). Description: NVS_ENZ_hPTPN13: NovaScreen (NVS) Enzymatic Assay for human Protein Tyrosine Phosphatase Non-receptor Type 13 (PTPN13) (AID 2283205; active = hit-call score of the fitted dose curve at least 0.9, where 1 is the maximum). In outline: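 Cell-free assay of recombinant human PTPN13 with a fluorescent substrate, product separated by electrophoretic mobility shift and read 0.5 h after dosing. Primary screen at 25 uM in duplicate, then concentration-response up to 50 uM. Loss of signal fitted against DMSO.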

Read-out in assay [4]: Alkaline Phosphatase, Placental (ALPP) gene, ALPP (gene 250)
Description: LTEA_HepaRG_ALPP: Life Technologies and Expression Analysis (LTEA) Assay for Alkaline Phosphatase, Placental (ALPP) gene using HepaRG (AID 2283468). The conditions noted are these: actives raise or lower the signal; mRNA level, 48 h. In outline:
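Differentiated human HepaRG cells were plated and cultured 48 h, then exposed in duplicate for 48 h in serum-free induction medium to eight half-log concentrations from 100 uM in 0.5% DMSO. ALPP mRNA was measured by TaqMan qRT-PCR, normalized to ACTB, GAPDH, POLR2A.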

Read-out in assay [5]: Cytochrome P450 4A22 (Homo sapiens) (UniProt Q5TCH4)
Description: LTEA_HepaRG_CYP4A22: Life Technologies and Expression Analysis (LTEA) Assay for Cytochrome P450 4A22 (CYP4A22) using HepaRG (AID 2283495). Conditions: actives raise or lower the signal; mRNA level, 48 h. In outline: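 qRT-PCR of CYP4A22 mRNA (Fluidigm TaqMan, normalized to three housekeeping genes) after 48 h chemical exposure of HepaRG cells; 8-point half-log series, top 100 uM, 0.5% DMSO vehicle. Bidirectional curve fitting vs DMSO baseline.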

Read-out in assay [6]: Nuclear factor NF-kappa-B p105 subunit (Homo sapiens) (UniProt P19838)
Description: LTEA_HepaRG_NFKB1: Life Technologies and Expression Analysis (LTEA) Assay for Nuclear Factor Kappa B Subunit 1 (NFKB1) using HepaRG (AID 2283521).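 Note: TaqMan qRT-PCR transcript normalised to ACTB GAPDH and POLR2A housekeeping genes.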 Conditions: actives raise or lower the signal; mRNA level, 48 h. The method in brief:
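HepaRG, 48 h exposure; 8-pt half-log series from 100 uM in 0.5% DMSO; duplicates. Readout: NFKB1 mRNA by qRT-PCR (Fluidigm arrays), housekeeping-normalized. Gain/loss fit vs DMSO baseline.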

Read-out in assay [7]: ABC Transporter (ABCB1), ABCB1 (gene 5243)
Description: CLD_ABCB1_6hr: CellzDirect (CLD) Gene Expression Assay for ABC Transporter (ABCB1) at 6 hours (AID 2283659; active = hit-call score of the fitted dose curve at least 0.9, where 1 is the maximum;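 note: hits raise ABCB1 transcript above the DMSO vehicle baseline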). In outline: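 Primary human hepatocytes (two donor preparations) dosed daily for two days with chemicals at multiple concentrations, 0.2% DMSO vehicle; harvested 6 h post-dose. ABCB1 mRNA induction quantified by qNPA chemiluminescence; gain-of-signal fitted versus DMSO.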

A short description of assay [8]: ACEA_AR_agonist_AUC_viability: ACEA Biosciences xCELLigence Real-Time Cell Analysis on Androgen Receptor Agonism for Viability (AID 2283775; active = hit-call score of the fitted dose curve at least 0.9, where 1 is the maximum;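 note: viability read 80 hours after compound addition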). The method in brief:
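Real-time impedance tracking of 22Rv1 growth, readings every 5 min for 5 h then hourly; area-under-curve viability endpoint at 80 hours, relative to DMSO. Compounds at eight concentrations, 1:4 steps, top 100 uM, n = 2.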

Read-out in assay [9]: Plasminogen activator inhibitor-1 (PAI1), SERPINE1 (gene 5054)
Description: BSK_hDFCGF_PAI1: BioMAP Diversity Plus: hDFCGF Assay for Plasminogen activator inhibitor-1 (PAI1) Biomarker Activity (AID 2283066). The conditions noted are these: actives raise or lower the signal; primary human foreskin fibroblasts. In outline:
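Primary dermal fibroblasts (human foreskin), hDFCGF system; compound 24 h; PAI-1 by ELISA; bidirectional fit vs DMSO control.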

Read-out in assay [10]: Vascular cell adhesion molecule 1 (VCAM1), VCAM1 (gene 7412)
Description: BSK_LPS_VCAM1: BioMAP Diversity Plus: LPS Assay for Vascular cell adhesion molecule 1 (VCAM1) Biomarker Activity (AID 2283086). Conditions: actives raise or lower the signal; primary human HUVEC with PBMC. The method in brief:
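HUVEC + PBMC co-culture, LPS system; compound 24 h; VCAM-1 by ELISA; bidirectional fit vs DMSO control; parallel SRB (0.1%, TCA-fixed, 560 nm) for cytotoxicity.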

Assay [11] addresses Estrogen receptor (Homo sapiens) (UniProt P03372). Description: OT_ERa_GFPERaERE_0120: Odyssey Thera (OT) 2-hour HeLa Transcription Induction Assay for Estrogen Receptor (AID 2283382; active = hit-call score of the fitted dose curve at least 0.9, where 1 is the maximum). In outline: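 HeLa, 384-well, 2 h chemical exposure; GFP reporter induction (ERE), fluorescence microscopy; high content image analysis; positive fitting direction vs DMSO.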
The target of assay [12] is Cellular tumor antigen p53 (Homo sapiens) (UniProt P04637). Description: TOX21_p53_BLA_p4_ratio: Tox21 HCT-116 p53 Agonism Beta-lactamase Assay, Ratio, Phase 4 (AID 2283601; active = hit-call score of the fitted dose curve at least 0.9, where 1 is the maximum). The method in brief: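 HCT-116 p53 beta-lactamase reporter cells (4000/well) preincubated 5 h, then compound (217-fold dilution of DMSO stock) for 16 h at 37C. CCF4-AM substrate added 2 h at room temperature; 460/530 nm emission ratio fitted upward versus DMSO.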

Assay [13] can be described thus: Tanguay_ZF_120hpf_ActivityScore_legacy: (Legacy) Oregon State University Tanguay Lab 120 Hour Post-fertilization zebrafish Assay Score for Activity (AID 2283742; active = hit-call score of the fitted dose curve at least 0.9, where 1 is the maximum;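 note: dechorionated Tropical 5D wild-type zebrafish embryos held singly per well; static exposure from 6 hpf until 120 hpf at 28 °C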). The method in brief:
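Dechorionated Tropical 5D embryos, one per well from 6 hpf, statically exposed to 120 hpf at 28 °C in 0.64% DMSO. Mortality and malformations scored binary by brightfield microscopy; activity score combines 18 endpoints, fitted positively versus DMSO.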

Assay [14] is described as follows: CCTE_Shafer_MEA_dev_inter_network_spike_interval_mean: CCTE's Neural Network Formation Assay for Mean Inter-network Spike Interval, Shafer Lab (AID 2284047). The method in brief:
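Rat cortical cultures, 1.5 x 10^5 cells/well on 48-well MEA plates; continuous exposure days 0–12, medium and compound refreshed DIV 5, 9. Mean time between consecutive network-spike peaks; AUC across DIV 5/7/9/12; DMSO baseline, negative fitting direction.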

For some assays here: Most of the hits are listed elsewhere, so they are rarer here than in the full data. Inconclusive results are not listed. Only a part is listed here, and it is no random draw. Activity calls are given as the source filed them. Rule for the calls, unless noted: active = hit-call score of the fitted dose curve at least 0.9, where 1 is the maximum; inactive = score below 0.9.

As for `N#Cc1c(Cl)c(Cl)c(Cl)c(C#N)c1Cl`, the result in assay [1], in assay [2], in assay [3], in [5], in assay [6] and in assay [7] was inactive. Further, the AC50 (commonly the concentration at which the activity in the assay is half-maximal) in assay [4] was active: 1.27 µM; in assay [8], active: 5.12 µM.

`ClC1=C(Cl)[C@]2(Cl)[C@@H]3[C@H]4C[C@H]([C@@H]5O[C@H]45)[C@@H]3[C@@]1(Cl)C2(Cl)Cl`: the outcome in assay [9], in assay [10], in [11], in [12] and in [14] was inactive. Also, in assay [13], the AC50 was active: 12.5 µM.
